Laboratory results as given in publication PMC5355325.

Protein sequences, listed by entry. Tags and fused reporters are not part of them. Lines headed by an entry give the natural chain unless they say otherwise; changes in a name come on top.
UniProt Q02548: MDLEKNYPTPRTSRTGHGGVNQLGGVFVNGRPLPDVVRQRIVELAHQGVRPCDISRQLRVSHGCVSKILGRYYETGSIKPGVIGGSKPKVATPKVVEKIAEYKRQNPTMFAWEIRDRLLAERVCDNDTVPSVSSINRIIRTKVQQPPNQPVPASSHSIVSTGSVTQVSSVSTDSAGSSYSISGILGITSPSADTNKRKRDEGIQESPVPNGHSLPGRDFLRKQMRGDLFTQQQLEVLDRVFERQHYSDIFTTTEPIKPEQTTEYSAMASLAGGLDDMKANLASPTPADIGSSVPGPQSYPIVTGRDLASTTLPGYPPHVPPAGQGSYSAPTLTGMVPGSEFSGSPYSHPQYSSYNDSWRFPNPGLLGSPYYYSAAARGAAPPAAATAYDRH

Biological target: Pax-5 (UniProt Q02548)
Experiment: competition with a labelled probe
Conditions: 100-fold molar excess cold competitor against biotin N1; protein in a lysate after overexpression; label: none as competitor (table lists biotin oligos)

“GAATGGGGCACTGAGGCGTG (double strand) [Pax-5 consensus motif (Pax-5 EMSA)]”: binds.

The exact form of at least one protein or probe is not confirmed. Where cells or extracts were used, other partners may take part.
